Some of the results follow.
Columns and labels:
Assay in all cases: log2 fold change, soluble protein after heating vs DMSO (PISA); higher = thermal stabilisation; K562 cells, 10 uM, 30 min; active = over 0.2 and 3.5 SD of the protein, either way, in both replicates (recomputed)
[1] = compound: CC[C@@H]1C(=O)N(C)c2cnc(Nc3ccc(C(=O)NC4CCN(C)CC4)cc3OC)nc2N1C1CCCC1
In short: (§1)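 K562 cells at 2×10^6 cells/mL were exposed to 10 μM compound for 30 min, then aliquots were heated for 3 min across 48°C-58°C, pooled, and extracted in PBS containing 0.5% NP-40 at 4°C. The supernatant after 21,000xg for 90 min was taken as soluble protein and measured by TMTpro 16plex LC-MS/MS with channel sums equalised. Thermal stability is reported relative to control samples, with values from duplicates. Fold changes are given on a log2 scale.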

Chains of the proteins cited; added tags and fusions are not shown. Lines headed by an entry give the natural chain unless they say otherwise; changes in a name come on top.
UniProt O60716: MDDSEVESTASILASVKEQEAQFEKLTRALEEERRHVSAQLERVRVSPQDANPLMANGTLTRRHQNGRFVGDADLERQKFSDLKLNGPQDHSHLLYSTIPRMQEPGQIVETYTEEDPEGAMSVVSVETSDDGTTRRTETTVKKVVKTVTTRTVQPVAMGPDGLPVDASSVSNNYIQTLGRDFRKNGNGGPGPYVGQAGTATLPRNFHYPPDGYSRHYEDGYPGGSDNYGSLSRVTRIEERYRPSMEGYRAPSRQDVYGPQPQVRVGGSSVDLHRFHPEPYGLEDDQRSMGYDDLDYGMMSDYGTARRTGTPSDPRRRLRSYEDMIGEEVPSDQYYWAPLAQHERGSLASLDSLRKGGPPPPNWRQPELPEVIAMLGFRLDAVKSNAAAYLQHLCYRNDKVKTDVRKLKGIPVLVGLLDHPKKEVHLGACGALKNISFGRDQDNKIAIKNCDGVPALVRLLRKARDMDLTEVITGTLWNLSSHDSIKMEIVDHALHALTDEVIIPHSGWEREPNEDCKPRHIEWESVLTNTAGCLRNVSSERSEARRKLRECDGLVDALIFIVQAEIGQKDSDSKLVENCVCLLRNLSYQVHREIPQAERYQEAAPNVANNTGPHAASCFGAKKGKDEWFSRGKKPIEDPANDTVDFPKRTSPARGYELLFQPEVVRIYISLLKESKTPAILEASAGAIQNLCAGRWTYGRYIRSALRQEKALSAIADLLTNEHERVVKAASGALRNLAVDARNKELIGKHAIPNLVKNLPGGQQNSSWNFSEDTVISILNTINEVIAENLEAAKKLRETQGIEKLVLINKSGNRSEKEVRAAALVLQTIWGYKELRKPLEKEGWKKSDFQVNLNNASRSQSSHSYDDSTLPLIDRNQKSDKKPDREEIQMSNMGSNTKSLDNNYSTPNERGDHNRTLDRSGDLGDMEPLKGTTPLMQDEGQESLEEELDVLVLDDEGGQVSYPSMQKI
UniProt P98082: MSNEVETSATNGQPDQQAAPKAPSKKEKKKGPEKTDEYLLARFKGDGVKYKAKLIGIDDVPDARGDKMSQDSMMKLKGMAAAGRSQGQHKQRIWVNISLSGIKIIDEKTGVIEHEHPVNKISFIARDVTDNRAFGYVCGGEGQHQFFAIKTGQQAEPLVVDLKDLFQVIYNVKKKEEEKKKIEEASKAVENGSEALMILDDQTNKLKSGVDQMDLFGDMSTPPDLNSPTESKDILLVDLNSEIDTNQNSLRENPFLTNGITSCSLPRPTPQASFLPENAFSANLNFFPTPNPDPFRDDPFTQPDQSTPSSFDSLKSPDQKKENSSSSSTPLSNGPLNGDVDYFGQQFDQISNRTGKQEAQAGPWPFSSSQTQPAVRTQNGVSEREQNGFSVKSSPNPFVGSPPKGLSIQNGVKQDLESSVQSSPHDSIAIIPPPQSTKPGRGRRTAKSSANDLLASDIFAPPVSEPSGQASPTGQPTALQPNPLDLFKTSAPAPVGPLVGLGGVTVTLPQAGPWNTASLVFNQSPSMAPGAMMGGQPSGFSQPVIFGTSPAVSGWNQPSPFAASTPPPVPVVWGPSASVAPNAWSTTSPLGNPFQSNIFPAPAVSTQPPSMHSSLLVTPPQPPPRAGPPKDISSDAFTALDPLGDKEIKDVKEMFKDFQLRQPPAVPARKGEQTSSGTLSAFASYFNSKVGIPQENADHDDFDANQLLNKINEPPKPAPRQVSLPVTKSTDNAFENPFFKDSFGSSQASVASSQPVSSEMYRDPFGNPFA
UniProt Q8NBI2: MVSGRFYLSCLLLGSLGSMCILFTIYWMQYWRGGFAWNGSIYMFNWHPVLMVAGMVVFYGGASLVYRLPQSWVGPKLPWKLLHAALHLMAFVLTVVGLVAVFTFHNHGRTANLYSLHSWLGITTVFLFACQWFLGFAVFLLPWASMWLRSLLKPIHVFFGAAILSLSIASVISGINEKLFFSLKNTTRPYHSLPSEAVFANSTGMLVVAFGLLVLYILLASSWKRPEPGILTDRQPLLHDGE
UniProt Q15438: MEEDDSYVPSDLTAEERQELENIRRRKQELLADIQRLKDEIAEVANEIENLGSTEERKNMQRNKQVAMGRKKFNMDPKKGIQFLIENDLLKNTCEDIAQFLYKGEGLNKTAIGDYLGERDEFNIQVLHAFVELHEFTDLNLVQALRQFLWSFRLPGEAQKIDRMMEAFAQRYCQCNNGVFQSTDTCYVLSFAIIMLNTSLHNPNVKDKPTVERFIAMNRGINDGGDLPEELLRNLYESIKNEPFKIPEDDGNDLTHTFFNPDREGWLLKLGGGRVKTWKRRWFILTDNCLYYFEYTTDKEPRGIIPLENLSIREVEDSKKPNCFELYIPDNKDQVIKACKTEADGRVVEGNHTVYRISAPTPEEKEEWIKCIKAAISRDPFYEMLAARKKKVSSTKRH
UniProt Q9UK59: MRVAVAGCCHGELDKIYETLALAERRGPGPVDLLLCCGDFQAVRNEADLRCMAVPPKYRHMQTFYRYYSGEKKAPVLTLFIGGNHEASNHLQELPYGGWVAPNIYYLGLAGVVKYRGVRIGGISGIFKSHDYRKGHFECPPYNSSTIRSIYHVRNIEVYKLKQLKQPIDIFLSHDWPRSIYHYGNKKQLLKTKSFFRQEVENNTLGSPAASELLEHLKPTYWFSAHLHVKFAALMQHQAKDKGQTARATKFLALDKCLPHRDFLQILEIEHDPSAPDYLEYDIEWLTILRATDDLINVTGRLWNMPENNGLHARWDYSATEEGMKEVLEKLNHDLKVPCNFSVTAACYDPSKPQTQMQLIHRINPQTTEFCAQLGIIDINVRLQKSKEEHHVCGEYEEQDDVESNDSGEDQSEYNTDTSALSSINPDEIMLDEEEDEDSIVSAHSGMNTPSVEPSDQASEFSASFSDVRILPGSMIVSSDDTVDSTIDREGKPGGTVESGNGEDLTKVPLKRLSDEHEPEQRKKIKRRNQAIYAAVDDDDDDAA
UniProt P53634: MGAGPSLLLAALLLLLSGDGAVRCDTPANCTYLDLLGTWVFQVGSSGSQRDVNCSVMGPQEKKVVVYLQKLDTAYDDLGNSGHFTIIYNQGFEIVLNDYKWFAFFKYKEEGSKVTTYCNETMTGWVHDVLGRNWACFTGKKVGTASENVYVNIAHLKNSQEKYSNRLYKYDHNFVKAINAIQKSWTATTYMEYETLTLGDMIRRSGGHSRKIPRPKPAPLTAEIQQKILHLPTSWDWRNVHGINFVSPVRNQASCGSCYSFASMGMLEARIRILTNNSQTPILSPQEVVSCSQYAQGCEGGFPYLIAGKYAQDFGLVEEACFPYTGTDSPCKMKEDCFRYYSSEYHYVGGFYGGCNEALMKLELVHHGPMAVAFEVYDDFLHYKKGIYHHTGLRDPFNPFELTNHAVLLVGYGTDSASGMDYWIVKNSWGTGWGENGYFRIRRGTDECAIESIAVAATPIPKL
UniProt Q07973: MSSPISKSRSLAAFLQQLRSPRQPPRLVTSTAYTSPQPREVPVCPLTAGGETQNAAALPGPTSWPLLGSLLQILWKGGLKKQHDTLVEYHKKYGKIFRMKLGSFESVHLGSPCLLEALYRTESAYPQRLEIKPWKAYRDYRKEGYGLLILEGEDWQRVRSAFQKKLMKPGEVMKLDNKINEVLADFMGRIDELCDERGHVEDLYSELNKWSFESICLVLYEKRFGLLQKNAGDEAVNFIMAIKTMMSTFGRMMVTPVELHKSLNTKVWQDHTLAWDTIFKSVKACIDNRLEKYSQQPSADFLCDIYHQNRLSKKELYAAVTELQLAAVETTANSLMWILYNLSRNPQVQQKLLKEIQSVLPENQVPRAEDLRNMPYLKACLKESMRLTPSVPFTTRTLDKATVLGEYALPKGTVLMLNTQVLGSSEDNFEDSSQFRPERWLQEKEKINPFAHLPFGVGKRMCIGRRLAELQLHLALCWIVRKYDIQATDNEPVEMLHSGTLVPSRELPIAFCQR
UniProt Q8WYA6: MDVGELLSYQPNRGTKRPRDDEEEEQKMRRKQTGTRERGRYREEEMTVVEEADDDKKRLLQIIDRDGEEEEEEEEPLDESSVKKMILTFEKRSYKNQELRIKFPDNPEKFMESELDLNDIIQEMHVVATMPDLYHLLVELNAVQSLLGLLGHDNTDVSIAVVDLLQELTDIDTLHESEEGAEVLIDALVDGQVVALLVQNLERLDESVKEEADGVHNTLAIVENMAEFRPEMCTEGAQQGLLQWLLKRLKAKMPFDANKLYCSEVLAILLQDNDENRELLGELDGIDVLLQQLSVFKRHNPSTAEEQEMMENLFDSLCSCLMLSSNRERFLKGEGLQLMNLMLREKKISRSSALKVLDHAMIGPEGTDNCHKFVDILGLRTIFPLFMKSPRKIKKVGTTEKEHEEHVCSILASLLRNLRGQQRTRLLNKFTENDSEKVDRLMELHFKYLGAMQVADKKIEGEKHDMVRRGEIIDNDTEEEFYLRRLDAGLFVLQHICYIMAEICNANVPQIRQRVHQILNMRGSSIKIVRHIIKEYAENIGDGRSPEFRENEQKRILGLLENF
UniProt P39880: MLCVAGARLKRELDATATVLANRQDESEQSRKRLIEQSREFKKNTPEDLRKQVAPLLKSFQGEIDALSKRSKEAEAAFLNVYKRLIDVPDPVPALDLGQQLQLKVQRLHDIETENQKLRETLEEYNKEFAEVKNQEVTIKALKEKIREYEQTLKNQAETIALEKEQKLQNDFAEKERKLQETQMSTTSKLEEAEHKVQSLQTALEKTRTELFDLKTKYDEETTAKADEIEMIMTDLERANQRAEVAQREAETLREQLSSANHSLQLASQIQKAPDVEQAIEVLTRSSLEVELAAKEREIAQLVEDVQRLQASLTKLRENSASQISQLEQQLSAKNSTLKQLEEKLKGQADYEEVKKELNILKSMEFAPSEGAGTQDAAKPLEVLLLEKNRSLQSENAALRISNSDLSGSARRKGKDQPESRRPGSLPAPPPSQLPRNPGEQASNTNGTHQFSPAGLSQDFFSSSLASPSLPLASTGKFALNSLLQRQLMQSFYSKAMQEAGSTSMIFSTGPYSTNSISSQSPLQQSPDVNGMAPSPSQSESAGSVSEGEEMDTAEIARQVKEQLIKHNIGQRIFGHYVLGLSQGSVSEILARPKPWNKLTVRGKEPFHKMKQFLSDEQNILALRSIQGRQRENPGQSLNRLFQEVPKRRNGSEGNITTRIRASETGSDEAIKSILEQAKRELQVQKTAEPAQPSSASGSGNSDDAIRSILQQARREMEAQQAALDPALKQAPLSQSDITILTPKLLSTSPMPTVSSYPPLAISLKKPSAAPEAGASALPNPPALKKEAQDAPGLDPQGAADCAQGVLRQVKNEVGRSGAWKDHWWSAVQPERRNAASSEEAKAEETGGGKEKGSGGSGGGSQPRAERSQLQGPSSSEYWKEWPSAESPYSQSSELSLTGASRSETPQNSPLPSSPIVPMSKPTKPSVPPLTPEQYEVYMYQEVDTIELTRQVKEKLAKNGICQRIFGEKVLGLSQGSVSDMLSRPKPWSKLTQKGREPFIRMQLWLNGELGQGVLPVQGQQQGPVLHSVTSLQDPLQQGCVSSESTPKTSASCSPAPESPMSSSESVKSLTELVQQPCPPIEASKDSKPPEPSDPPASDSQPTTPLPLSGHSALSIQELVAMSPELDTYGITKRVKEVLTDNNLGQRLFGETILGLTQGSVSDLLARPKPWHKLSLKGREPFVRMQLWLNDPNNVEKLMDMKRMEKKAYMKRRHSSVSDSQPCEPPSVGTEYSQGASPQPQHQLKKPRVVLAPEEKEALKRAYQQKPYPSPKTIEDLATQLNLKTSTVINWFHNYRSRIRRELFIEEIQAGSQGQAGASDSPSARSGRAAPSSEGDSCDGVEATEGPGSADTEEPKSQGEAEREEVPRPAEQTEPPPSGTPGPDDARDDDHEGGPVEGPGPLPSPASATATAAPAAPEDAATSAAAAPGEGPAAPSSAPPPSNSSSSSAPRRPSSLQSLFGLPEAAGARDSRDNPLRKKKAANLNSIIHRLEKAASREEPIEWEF
UniProt P13498: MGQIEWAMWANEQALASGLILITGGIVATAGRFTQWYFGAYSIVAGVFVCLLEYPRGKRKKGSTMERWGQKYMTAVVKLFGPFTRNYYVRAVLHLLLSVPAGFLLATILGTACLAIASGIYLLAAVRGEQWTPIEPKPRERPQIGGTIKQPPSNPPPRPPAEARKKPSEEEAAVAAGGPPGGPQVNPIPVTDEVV
UniProt P09668: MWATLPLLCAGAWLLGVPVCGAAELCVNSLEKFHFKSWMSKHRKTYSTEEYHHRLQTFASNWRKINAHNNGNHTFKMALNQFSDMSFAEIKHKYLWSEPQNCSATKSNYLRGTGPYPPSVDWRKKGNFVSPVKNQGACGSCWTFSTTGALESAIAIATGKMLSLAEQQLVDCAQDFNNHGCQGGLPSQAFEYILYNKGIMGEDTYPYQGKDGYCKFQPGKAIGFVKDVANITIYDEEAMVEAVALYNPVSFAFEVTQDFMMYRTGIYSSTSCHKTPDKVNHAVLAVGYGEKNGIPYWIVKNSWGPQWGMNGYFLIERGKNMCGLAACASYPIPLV

volasertib = compound: CC[C@@H]1C(=O)N(C)c2cnc(Nc3ccc(C(=O)N[C@H]4CC[C@H](N5CCN(CC6CC6)CC5)CC4)cc3OC)nc2N1C(C)C [volasertib]
In short: as §1

[2] = compound: CC[C@H](C)N1C=C(C2=C(C=C(C=C21)C3=CN=C(C=C3)N4CCNCC4)C(=O)NCC5=C(C=C(NC5=O)C)C)C
In short: as §1

epoxomicin = compound: CC[C@H](C)[C@@H](C(=O)N[C@@H]([C@@H](C)O)C(=O)N[C@@H](CC(C)C)C(=O)[C@]1(CO1)C)NC(=O)[C@H]([C@@H](C)CC)N(C)C(=O)C [epoxomicin]
In short: as §1

[3] = compound: CCn1cc(-c2ccnc3[nH]c(-c4cccc(CN(C)C)c4)cc23)c(-c2ccc(NC(=O)N(C)C)cc2)n1
In short: as §1

[4] = compound: CN(C)CC(=O)Nc1ccc2[nH]c(=O)c3ccccc3c2c1
In short: as §1

[5] = compound: CN1C2=C(C3=C1C(=O)N(N=C3)CC4=CC(=CC=C4)N)SC(=C2)S(=O)C
In short: as §1

[6] = compound: CN1CCC(CNc2ccc3ncc(-c4cccc(OC(F)(F)F)c4)n3n2)CC1
In short: as §1

[7] = compound: CCn1c(C(=O)N(C2CC2)C2CC2)cc2c3c(ncn3C)c(Nc3cc(C)n(C)n3)nc21
In short: as §1

rosiglitazone = compound: CN(CCOC1=CC=C(C=C1)C[C@H]2C(=O)NC(=O)S2)C3=CC=CC=N3 (racemic) [rosiglitazone]
In short: as §1

Measured: log2 fold change

DBN1 isoform 3 (UniProt Q16643)
inactive: [1] 0.026 | volasertib -0.189 | [2] 0.089 | epoxomicin -0.014 | [3] 0.087 | [4] -0.047 | [5] 0.05 | [6] -0.011

CTSZ (UniProt Q9UBR2)
active: [1] -0.954 | volasertib -1.54 | [6] -0.843
inactive: [2] -0.058 | epoxomicin 0.02 | [3] 0 | [4] -0.026 | [5] -0.087

CTNND1 (UniProt O60716)
inactive: [1] 0.044 | volasertib 0.066 | epoxomicin -0.269 | [7] -0.044 | [3] 0.176 | [4] 0.009 | rosiglitazone -0.059 | [5] 0.227 | [6] 0.069

DAB2 (UniProt P98082)
active: volasertib -0.289
inactive: [1] -0.204 | [2] 0.042 | epoxomicin -0.004 | [3] 0.022 | [4] 0.132 | [5] 0.032 | [6] -0.111

CYB561A3 isoform 2 (UniProt Q8NBI2)
inactive: [1] -0.058 | volasertib 0.103 | [2] -0.089 | [3] -0.241 | [5] -0.021 | [6] 0.032

CYTH1 (UniProt Q15438)
inactive: [1] -0.043 | volasertib -0.056 | epoxomicin 0.279 | [4] 0.077 | [5] -0.019

DBR1 (UniProt Q9UK59)
inactive: [1] 0.037 | volasertib 0 | [2] 0.008 | epoxomicin -0.018 | [3] 0.015 | [4] -0.019 | [5] -0.034 | [6] 0.015

CTSC (UniProt P53634)
inactive: [2] -0.034 | epoxomicin 0.023 | [3] -0.032 | [4] 0.146 | [5] -0.015
active: [1] -0.419 | volasertib -0.946 | [6] -0.433

DCTN5 (UniProt Q9BTE1)
inactive: [1] 0.02 | volasertib -0.004 | [2] 0.008 | [7] -0.048 | [3] -0.082 | [4] -0.023 | rosiglitazone 0.062 | [5] 0.011 | [6] 0.057

CYP24A1 (UniProt Q07973)
inactive: [1] 0.252 | volasertib 0.379 | [2] -0.209 | [3] 0.065 | [4] -0.175 | [5] 0.288 | [6] 0.198

Pulled one by one from the list above (2):
CTSC (UniProt P53634)
inactive: [2] -0.034 | epoxomicin 0.023 | [3] -0.032 | [4] 0.146 | [5] -0.015
active: [1] -0.419 | volasertib -0.946 | [6] -0.433

DAB2 (UniProt P98082)
active: volasertib -0.289
inactive: [1] -0.204 | [2] 0.042 | epoxomicin -0.004 | [3] 0.022 | [4] 0.132 | [5] 0.032 | [6] -0.111

(continued)

CTNNBL1 (UniProt Q8WYA6)
inactive: [1] -0.362 | [4] 0.012
active: volasertib -1.24

CUX1 isoform 3 (UniProt P39880)
inactive: [1] 0.008 | volasertib -0.153 | [2] 0.036 | epoxomicin 0.027 | [3] -0.008 | [4] -0.019 | [5] 0.004 | [6] -0.123

CTR9 (UniProt Q6PD62)
inactive: [1] -0.162 | volasertib -1.12 | epoxomicin 0.162 | [7] -0.019 | [3] -0.05 | [5] 0.164 | [6] -0.003

CYBA (UniProt P13498)
inactive: [1] -0.091 | volasertib -0.125 | [2] -0.026 | epoxomicin 0.037 | [3] 0.074 | [4] -0.02 | [5] -0.064 | [6] -0.04

CTSH (UniProt P09668)
inactive: [1] -0.087 | volasertib -0.06 | [2] 0.008 | epoxomicin -0.022 | [3] 0.057 | [4] 0.001 | [5] -0.008
active: [6] -0.295
